Laboratory results: PubChem BioAssay AID1259308 (NCATS, 2017)

Screen: 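Genes whose loss raises luciferase production in HEK293 cells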 (primary screen)
System: human HEK293 embryonic kidney cells stably expressing firefly luciferase (HEK-CMV-Luc2-Hygro)
Reagent: single siRNA against human genes, 0.8 pmol siRNA per well
Duration: 72 h
Read-out: 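Reporter luminescence and viable-cell signal on separate replicate plates, given as percent of non-targeting control and median/MAD z-scores, plus per-cell luciferase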
Reading the numbers: total luciferase, z-score: higher = more reporter protein produced
Hit rule: 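An siRNA counts as active if its total luciferase robust z-score exceeds 3; genes with two or more such siRNAs out of three were retested with fresh siRNAs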
Meaning of the calls: active = raised luciferase; inactive = no rise
In all, the deposit lists about 59,000 reagents; below is a part drawn at random. About 1,510 of them (2.6%) count as active. 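Calls use total luciferase alone and ignore viability, so some active siRNAs may act by altering cell number.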 Reagents against one gene are numbered here. Further read-outs or replicates are left out here. Reagent sequences are not shown.

Against PRUNE2 (GeneID 158471) #1, the values are total luciferase, z-score 0.178; inactive. PRUNE2 (GeneID 158471) #2 gave total luciferase, z-score -0.0898; inactive. PRUNE2 (GeneID 158471) #3 scored total luciferase, z-score 0.177; inactive. NDUFA3P3 (GeneID 644482) #1 showed total luciferase, z-score 0.401; inactive. Against NDUFA3P3 (GeneID 644482) #2, the entry reads total luciferase, z-score 0.693; inactive. For NDUFA3P3 (GeneID 644482) #3, the values are total luciferase, z-score -1.32; inactive.

STRN (GeneID 6801) #1 showed total luciferase, z-score -0.0859; inactive. STRN (GeneID 6801) #2 scored total luciferase, z-score 1.77; inactive. STRN (GeneID 6801) #3 showed total luciferase, z-score -0.646; inactive. DTX4 (GeneID 23220) #1 showed total luciferase, z-score -0.622; inactive. Silencing of DTX4 (GeneID 23220) #2 gave: total luciferase, z-score -0.374; inactive. Against DTX4 (GeneID 23220) #3, the values are total luciferase, z-score 0.862; inactive.

Not a retest: entries from further up.
DTX4 (GeneID 23220) #2 | total luciferase, z-score: -0.374; call: inactive
DTX4 (GeneID 23220) #3 | total luciferase, z-score: 0.862; call: inactive

Continued:
Depletion of VEZF1 (GeneID 7716) #1 resulted in: total luciferase, z-score -1.88; inactive. For VEZF1 (GeneID 7716) #2 the deposit lists total luciferase, z-score -0.203; inactive. For VEZF1 (GeneID 7716) #3 the deposit lists total luciferase, z-score 1.49; inactive. Against CEMIP2 (GeneID 23670) #1, the entry reads total luciferase, z-score -1.21; inactive. Silencing of CEMIP2 (GeneID 23670) #2 gave: total luciferase, z-score 0.132; inactive. CEMIP2 (GeneID 23670) #3 gave total luciferase, z-score -1.11; inactive.

With knock-down of GEMIN2 (GeneID 8487) #1 the results were total luciferase, z-score 3.03; active. For GEMIN2 (GeneID 8487) #2, the entry reads total luciferase, z-score 1.3; inactive. GEMIN2 (GeneID 8487) #3 scored total luciferase, z-score 1.06; inactive. For MAGED4B (GeneID 81557) #1 the deposit lists total luciferase, z-score 1.64; inactive. Knock-down of MAGED4B (GeneID 81557) #2 came out at: total luciferase, z-score 0.233; inactive. Against MAGED4B (GeneID 81557) #3, the entry reads total luciferase, z-score -0.0103; inactive.

MUC1 (GeneID 4582) #1 scored total luciferase, z-score 0.865; inactive. With knock-down of MUC1 (GeneID 4582) #2 the results were total luciferase, z-score 0.113; inactive. After knock-down of MUC1 (GeneID 4582) #3 the results were total luciferase, z-score 0.545; inactive. Depletion of ZNF99 (GeneID 7652) #1 gave: total luciferase, z-score -0.905; inactive. Against ZNF99 (GeneID 7652) #2 the deposit lists total luciferase, z-score 1.14; inactive. Depletion of ZNF99 (GeneID 7652) #3 resulted in: total luciferase, z-score -0.148; inactive.

Against TRUB1 (GeneID 142940) #1 the deposit lists total luciferase, z-score -0.299; inactive. With knock-down of TRUB1 (GeneID 142940) #2 the results were total luciferase, z-score 0.494; inactive. With knock-down of TRUB1 (GeneID 142940) #3, the screen gave total luciferase, z-score 1.17; inactive.
